Consider 1 substance from patent US20180214514A1.

The chains behind the UniProt entries cited, without tags or fusion partners. Where a name states a change or a piece, a line headed by the entry shows the natural chain unless it says otherwise. Residues count along the entry.
UniProt P09038, residues 134-288: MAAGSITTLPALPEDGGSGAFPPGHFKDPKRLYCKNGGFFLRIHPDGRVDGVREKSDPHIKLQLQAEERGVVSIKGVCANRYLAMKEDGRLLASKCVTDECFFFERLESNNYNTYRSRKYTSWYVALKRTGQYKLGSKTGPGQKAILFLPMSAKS
UniProt Q8TAT2: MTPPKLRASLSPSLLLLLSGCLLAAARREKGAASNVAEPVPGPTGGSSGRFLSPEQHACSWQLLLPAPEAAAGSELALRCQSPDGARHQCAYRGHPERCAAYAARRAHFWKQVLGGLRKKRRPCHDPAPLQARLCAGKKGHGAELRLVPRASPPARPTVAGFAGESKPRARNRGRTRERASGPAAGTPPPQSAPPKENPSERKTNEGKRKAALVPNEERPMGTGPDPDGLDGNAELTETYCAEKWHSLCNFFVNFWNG

This assay has as its target human recombinant FGF2 (human) (UniProt P09038). Nature of the assay: SPR, C66 over immobilized FGF2 (FIG. 7B).

Results are given in words; binding and its absence hold for the method and conditions named. Some results given as binding are weak or reduced against the parent protein; the word gives no strength.

In the case of “MBP-tagged C66 fusion protein (C-terminal 66-amino acid FGF-binding domain of human BP3) (from UniProt Q8TAT2 193-258)”, the binding result is given as “binds”.
